In the supplement of paper PMC10849652:
The list shows a part of the results.

Protein sequences, listed by entry. Tags and fused reporters are not part of them. Lines headed by an entry give the natural chain unless they say otherwise; changes in a name come on top.
UniProt O43462: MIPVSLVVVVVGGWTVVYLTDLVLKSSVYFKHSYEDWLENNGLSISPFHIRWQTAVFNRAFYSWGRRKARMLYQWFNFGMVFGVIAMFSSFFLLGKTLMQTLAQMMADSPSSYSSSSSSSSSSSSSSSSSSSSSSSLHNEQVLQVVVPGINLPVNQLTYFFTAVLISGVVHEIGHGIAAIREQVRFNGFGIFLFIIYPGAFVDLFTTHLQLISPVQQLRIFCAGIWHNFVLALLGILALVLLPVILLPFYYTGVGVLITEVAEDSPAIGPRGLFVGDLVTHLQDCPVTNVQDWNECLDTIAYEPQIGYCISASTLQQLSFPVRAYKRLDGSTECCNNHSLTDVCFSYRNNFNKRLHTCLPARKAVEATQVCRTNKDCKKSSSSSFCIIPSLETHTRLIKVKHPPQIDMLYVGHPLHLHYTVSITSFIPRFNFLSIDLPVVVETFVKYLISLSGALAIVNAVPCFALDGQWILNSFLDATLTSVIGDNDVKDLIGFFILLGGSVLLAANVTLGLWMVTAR
UniProt Q6P2C8: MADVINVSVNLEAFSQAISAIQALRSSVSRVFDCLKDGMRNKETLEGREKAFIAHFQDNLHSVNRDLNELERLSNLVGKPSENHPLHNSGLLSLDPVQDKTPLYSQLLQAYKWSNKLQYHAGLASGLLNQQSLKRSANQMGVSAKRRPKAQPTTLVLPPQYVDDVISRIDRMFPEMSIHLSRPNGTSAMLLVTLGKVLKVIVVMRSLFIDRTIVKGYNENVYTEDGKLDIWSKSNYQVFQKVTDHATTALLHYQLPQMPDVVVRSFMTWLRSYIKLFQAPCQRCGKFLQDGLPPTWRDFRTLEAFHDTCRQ
UniProt Q9NX70: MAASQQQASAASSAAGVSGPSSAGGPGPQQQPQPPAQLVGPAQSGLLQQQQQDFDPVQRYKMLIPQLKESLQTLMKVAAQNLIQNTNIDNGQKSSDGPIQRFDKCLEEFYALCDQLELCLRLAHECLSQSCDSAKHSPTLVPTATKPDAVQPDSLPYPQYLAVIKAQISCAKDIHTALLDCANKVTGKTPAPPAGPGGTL
UniProt O75586: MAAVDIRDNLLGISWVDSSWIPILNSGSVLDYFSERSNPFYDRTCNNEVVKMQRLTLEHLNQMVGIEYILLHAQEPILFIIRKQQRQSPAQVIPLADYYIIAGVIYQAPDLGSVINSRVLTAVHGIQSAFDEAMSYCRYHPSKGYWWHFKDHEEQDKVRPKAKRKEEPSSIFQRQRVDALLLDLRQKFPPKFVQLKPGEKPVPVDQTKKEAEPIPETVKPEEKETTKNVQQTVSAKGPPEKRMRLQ
UniProt Q6NUT3: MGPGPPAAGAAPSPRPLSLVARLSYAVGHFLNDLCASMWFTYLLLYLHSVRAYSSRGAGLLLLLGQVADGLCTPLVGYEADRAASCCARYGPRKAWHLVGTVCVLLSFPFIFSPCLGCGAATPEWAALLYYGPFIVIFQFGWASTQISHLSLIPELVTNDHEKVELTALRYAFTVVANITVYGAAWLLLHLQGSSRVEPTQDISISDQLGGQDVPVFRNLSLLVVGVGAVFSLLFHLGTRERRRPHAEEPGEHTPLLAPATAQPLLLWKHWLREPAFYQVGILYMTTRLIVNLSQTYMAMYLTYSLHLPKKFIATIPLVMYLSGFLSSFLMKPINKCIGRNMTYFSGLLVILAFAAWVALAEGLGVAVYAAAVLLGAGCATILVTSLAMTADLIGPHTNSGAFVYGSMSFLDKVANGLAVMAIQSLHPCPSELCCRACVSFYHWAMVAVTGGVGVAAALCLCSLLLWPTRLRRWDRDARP
UniProt Q9P086: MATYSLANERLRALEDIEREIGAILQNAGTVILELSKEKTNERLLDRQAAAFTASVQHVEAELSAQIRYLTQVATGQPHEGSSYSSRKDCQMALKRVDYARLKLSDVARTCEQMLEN
UniProt Q02078: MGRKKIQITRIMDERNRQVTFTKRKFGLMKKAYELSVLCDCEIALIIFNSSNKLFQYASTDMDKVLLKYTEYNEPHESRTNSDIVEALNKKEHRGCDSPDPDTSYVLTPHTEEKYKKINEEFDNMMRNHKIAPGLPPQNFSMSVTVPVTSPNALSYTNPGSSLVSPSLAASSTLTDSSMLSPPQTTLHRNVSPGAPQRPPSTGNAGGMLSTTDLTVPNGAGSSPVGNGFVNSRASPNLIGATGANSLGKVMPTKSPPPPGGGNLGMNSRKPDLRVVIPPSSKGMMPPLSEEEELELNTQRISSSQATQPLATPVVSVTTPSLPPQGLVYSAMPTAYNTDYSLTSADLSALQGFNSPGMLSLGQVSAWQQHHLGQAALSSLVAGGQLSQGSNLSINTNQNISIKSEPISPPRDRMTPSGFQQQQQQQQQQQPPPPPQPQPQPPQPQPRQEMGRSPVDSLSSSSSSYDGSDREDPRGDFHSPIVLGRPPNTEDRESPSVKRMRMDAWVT
UniProt P21741: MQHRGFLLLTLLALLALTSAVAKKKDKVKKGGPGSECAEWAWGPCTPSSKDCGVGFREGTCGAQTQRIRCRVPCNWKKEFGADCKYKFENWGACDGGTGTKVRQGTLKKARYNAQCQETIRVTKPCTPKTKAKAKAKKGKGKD
UniProt Q9NS73: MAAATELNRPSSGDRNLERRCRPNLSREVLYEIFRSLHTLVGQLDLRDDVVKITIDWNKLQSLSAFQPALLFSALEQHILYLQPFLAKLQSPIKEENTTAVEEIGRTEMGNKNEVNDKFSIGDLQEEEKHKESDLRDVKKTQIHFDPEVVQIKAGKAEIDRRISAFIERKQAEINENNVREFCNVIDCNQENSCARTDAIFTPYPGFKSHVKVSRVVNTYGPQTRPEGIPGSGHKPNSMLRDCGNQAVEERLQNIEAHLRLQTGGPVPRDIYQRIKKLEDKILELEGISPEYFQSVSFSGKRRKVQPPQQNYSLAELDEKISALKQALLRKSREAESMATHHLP
UniProt Q9H1U4: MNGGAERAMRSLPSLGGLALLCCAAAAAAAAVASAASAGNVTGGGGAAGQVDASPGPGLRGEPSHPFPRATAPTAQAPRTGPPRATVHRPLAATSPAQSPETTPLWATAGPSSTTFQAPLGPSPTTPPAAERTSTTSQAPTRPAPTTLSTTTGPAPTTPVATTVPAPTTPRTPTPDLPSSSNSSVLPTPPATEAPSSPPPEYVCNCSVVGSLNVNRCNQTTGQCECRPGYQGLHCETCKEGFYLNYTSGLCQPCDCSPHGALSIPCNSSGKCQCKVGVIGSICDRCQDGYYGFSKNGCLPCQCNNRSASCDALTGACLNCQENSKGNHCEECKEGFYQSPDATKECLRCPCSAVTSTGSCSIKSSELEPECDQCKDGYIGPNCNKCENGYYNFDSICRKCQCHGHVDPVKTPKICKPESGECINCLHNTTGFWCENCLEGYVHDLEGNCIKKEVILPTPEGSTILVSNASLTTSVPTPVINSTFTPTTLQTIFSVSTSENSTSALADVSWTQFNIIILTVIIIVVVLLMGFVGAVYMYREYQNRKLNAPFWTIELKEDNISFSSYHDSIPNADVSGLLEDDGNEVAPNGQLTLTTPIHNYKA
UniProt O14770: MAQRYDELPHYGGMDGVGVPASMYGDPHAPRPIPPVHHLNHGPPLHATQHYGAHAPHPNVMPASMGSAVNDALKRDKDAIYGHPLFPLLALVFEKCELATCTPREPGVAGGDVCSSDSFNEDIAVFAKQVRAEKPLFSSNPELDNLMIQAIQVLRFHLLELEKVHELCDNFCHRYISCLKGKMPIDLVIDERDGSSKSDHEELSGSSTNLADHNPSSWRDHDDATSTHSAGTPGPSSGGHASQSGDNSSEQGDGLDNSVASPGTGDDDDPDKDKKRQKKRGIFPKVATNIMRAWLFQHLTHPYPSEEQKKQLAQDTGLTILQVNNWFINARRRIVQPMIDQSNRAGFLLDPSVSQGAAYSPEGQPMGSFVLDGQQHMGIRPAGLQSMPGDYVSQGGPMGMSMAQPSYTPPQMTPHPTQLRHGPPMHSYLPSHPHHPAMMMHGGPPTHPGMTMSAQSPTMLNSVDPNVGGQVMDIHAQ
UniProt Q14680: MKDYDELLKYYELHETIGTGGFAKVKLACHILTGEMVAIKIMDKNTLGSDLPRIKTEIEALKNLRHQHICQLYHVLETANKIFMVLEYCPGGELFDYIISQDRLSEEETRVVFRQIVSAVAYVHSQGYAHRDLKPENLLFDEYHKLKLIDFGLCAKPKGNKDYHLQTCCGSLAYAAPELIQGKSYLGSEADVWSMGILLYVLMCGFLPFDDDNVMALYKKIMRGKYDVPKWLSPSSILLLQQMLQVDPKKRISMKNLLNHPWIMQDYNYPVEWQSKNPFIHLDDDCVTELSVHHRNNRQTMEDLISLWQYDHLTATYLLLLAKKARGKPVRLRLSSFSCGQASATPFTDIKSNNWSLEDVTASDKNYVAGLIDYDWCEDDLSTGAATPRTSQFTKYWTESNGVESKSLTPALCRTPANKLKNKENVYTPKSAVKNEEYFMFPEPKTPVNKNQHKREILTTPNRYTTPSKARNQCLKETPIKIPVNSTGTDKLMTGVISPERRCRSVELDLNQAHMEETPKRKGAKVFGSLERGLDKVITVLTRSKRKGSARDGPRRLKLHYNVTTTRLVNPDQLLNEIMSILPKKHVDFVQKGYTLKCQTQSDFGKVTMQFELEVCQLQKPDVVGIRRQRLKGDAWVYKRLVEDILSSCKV
UniProt O43934: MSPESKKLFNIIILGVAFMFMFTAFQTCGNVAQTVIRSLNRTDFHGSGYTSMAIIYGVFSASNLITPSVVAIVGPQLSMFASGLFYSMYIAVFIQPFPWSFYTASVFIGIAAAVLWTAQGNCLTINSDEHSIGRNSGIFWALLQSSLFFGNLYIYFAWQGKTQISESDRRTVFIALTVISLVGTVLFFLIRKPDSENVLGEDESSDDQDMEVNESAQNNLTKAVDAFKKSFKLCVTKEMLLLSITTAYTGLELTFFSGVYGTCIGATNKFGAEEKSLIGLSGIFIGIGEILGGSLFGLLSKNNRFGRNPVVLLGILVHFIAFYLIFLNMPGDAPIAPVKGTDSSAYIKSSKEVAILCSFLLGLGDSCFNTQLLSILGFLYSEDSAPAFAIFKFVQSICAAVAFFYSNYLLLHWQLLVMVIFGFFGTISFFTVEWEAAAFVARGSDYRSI
UniProt Q9Y4C4: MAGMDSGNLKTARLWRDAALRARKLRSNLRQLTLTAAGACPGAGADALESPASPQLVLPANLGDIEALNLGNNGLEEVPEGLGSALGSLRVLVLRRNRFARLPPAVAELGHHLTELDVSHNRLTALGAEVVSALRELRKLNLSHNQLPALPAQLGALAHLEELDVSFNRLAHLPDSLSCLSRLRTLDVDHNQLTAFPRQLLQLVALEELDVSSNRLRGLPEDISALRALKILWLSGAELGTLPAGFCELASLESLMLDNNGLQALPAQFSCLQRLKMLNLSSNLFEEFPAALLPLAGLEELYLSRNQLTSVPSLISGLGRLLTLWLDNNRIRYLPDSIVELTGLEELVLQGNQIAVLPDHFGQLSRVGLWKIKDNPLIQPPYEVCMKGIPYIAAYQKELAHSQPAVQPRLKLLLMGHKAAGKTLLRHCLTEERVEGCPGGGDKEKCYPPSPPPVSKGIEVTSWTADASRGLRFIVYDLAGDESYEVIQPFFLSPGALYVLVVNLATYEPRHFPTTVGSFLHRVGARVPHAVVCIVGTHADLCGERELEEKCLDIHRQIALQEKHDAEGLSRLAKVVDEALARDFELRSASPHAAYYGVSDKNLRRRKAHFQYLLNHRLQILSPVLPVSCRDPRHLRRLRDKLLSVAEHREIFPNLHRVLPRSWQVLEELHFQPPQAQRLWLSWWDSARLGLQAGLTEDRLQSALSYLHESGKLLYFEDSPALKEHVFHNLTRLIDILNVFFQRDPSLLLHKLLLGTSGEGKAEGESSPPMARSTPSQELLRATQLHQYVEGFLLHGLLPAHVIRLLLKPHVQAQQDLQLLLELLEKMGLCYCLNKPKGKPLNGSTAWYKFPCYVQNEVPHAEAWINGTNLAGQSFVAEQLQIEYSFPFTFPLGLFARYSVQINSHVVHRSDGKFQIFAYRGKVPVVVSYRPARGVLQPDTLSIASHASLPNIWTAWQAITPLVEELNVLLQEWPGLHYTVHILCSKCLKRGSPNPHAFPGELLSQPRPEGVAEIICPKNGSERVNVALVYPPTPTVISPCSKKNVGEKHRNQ
UniProt P55082: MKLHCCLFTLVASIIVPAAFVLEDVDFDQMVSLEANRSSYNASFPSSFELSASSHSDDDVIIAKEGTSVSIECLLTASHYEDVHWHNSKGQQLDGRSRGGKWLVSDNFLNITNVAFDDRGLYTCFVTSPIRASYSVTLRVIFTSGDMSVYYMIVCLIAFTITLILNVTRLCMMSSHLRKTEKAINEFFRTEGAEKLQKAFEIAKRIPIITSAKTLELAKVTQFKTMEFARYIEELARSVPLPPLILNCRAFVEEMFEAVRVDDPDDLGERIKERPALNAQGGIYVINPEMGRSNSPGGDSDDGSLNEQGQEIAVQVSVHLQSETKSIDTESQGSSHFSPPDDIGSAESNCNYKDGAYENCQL

What follows are targets tested with CCN(CC)Cc1ccc2cc(COC(=O)Nc3ccc(C(=O)NO)cc3)ccc2c1 [givinostat] (assay: log2 fold change, soluble protein after heating vs DMSO (PISA); higher = thermal stabilisation; K562 cells, 10 uM, 30 min; active = over 0.2 and 3.5 SD of the protein, either way, in both replicates (recomputed)).
In short: (§1)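 K562 cells at 2×10^6 cells/mL were treated with 10 μM compound for 30 min. Aliquots were heated for 3 min across 48°C-58°C, pooled, and extracted in PBS with 0.5% NP-40 at 4°C; soluble protein was the supernatant after 21,000xg for 90 min. Soluble protein was quantified by TMTpro 16plex LC-MS/MS with channel sums equalised, and reported as log2 fold change in thermal stability against DMSO controls, with values from duplicates.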

log2 fold change, inactive:
METTL26 (UniProt Q96S19) -0.024
MFSD6 (UniProt Q6ZSS7) -0.026
MEX3B (UniProt Q6ZN04) 0.098
MBLAC1 (UniProt A4D2B0) -0.04
MBTPS2 (UniProt O43462) 0.03
MED27 (UniProt Q6P2C8) 0.046
METTL6 (UniProt Q8TCB7) 0.119
METTL7B (UniProt Q6UX53) -0.012
MED29 (UniProt Q9NX70) -0.076
MED6 (UniProt O75586) -0.003
MGRN1 isoform 2 (UniProt O60291) 0.012
MFSD12 isoform 3 (UniProt Q6NUT3) -0.022
MED11 (UniProt Q9P086) -0.131
METTL9 (UniProt Q9H1A3) 0.058
MFSD9 (UniProt Q8NBP5) -0.059
MED13L (UniProt Q71F56) 0.033
MEF2A (UniProt Q02078) -0.011
MDK (UniProt P21741) -0.392
MBIP (UniProt Q9NS73) -0.008
MCOLN3 (UniProt Q8TDD5) 0.221
MEGF9 (UniProt Q9H1U4) -0.041
MBNL2 (UniProt Q5VZF2) 0.044
MFSD8 (UniProt Q8NHS3) 0.034
MEIS2 (UniProt O14770) 0.073
MELK (UniProt Q14680) -0.023

What follows are targets tested with CCN(CCCOc1ccc2c(Nc3cc(CC(=O)Nc4cccc(F)c4)[nH]n3)ncnc2c1)CCOP(=O)(O)O [barasertib] in the same assay as above.
In short: as §1

log2 fold change, inactive:
METTL26 (UniProt Q96S19) -0.349
MFSD6 (UniProt Q6ZSS7) 0.143
MEX3B (UniProt Q6ZN04) -0.009
MBLAC1 (UniProt A4D2B0) -0.016
MED27 (UniProt Q6P2C8) 0.126
METTL6 (UniProt Q8TCB7) 0.032
MFSD11 (UniProt O43934) 0.013
MED6 (UniProt O75586) -0.029
MGRN1 isoform 2 (UniProt O60291) 0
MFHAS1 (UniProt Q9Y4C4) -0.092
METTL9 (UniProt Q9H1A3) 0.19
MDK (UniProt P21741) -0.111
MBIP (UniProt Q9NS73) 0.184
MCOLN3 (UniProt Q8TDD5) -0.171
MEGF9 (UniProt Q9H1U4) 0.024
MFAP3 (UniProt P55082) 0.05
MFSD8 (UniProt Q8NHS3) -0.062
MEIS2 (UniProt O14770) -0.051
METTL15 (UniProt A6NJ78) -0.07
MELK (UniProt Q14680) 0.048
